PubChem BioAssay AID2517 (National Center for Advancing Translational Sciences (NCATS), 2010)
Among all 350,000 compounds or so, about 1,200 (0.34%) were called active. The shares of active, inactive and inconclusive entries below differ from those in the screen. The call rests on the fitted dose curve; in most records, active means well fitted inhibition curve with a large enough effect; inconclusive means small, poorly fitted or top-dose-only effect; inactive means no such curve, though single readings can be large or run the other way. A potency beside an inconclusive call is a rough fit, not a confirmed value.

Protein sequences, listed by entry. Tags and fused reporters are not part of them.
UniProt P27695, whole entry, looked up: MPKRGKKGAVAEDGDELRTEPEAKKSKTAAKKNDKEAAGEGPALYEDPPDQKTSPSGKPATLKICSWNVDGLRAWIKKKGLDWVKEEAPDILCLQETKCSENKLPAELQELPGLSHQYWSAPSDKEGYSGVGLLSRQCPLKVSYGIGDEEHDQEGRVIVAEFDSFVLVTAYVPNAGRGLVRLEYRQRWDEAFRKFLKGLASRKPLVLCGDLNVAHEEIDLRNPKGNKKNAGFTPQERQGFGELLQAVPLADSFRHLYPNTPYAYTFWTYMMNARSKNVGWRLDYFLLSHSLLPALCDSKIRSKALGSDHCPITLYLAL

biological target: DNA repair nuclease/redox regulator APEX1 (Homo sapiens) (UniProt P27695); assay: qHTS Assay for Inhibitors of the Human Apurinic/apyrimidinic Endonuclease 1 (APE1); conditions: recombinant APE1, TAMRA/BHQ-2 abasic DNA cleavage fluorescence; activity change, negative = inhibition: at 65.8 µM (top of the series); further: nearly all actives have a fitted effect of over 55% in size;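 on activity change, negative = inhibition: plate controls were vehicle for no effect and reference inhibitor for full effect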
Summary of the method: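 Enzyme (0.75 nM final) and test compound are incubated 15 min at room temperature before adding 50 nM quenched THF abasic-site duplex. Cleavage dequenches TAMRA, followed at 525/598 nm over three reads one minute apart.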
Potency means the concentration at half of the fitted maximal effect.

Row | SMILES | Potency | activity change, negative = inhibition
1 | CSC1=NCCN1C(=O)c1cccc(Br)c1 | inconclusive: 44.7 µM [inhibitor, single point] | 
2 | O=C(O)c1ccccc1NS(=O)(=O)c1ccc(NN=Cc2ccccc2F)c([N+](=O)[O-])c1 | inconclusive: 37.7 µM [inhibitor, single point] | 
3 | Cc1ccc(S(=O)(=O)Nc2ccc(C(OC(=O)c3ccccc3[N+](=O)[O-])(C(F)(F)F)C(F)(F)F)cc2)cc1 | inconclusive: 0.005 µM [inhibitor, full curve, poor fit] | 
4 | C[C@@](N)(C(=O)O)c1ccc(S(=O)(=O)O)cc1 | inconclusive: 3.16 µM [inhibitor, full curve, poor fit] | 
5 | Cc1ccc(Cl)cc1Nc1nc(-c2sc(NC(=O)c3ccco3)nc2C)cs1 | inconclusive: 20 µM [inhibitor, partial curve] | 
6 | COc1ccc(C)cc1NC(=O)COC(=O)c1ccc([N+](=O)[O-])o1 |  | inactive: -0.504%
7 | CN1C(=O)c2cccc3c(Cl)ccc(c23)C1=O |  | inactive: 1.53%
8 | Cc1cc(C(=O)CSc2nnnn2C)c(C)n1CCc1ccc(F)cc1 | inconclusive: 15.8 µM [inhibitor, partial curve, poor fit] | 
9 | C[n+]1cccc2ccc3c(c21)OC(N)=C(C#N)C3c1ccccc1 (centres undefined) |  | inactive: 1.71%
10 | CC(=O)OCC(=O)Nc1ccccc1OC(F)F | inconclusive: 5.62 µM [inhibitor, full curve, poor fit] | 
11 | Cc1sc2ncnc(OCC(=O)Nc3ccc4c(c3)OCCO4)c2c1C | inconclusive: 3.98 µM [inhibitor, full curve, poor fit] | 
12 | COc1c2c(cc3oc(C)cc(=O)c13)OC(C(C)(C)OC1OC(CO)C(O)C(O)C1O)C2 (centres undefined) | inconclusive: 3.16 µM [inhibitor, single point] | 
13 | O=c1ccc2ccc(Oc3ccc([N+](=O)[O-])cc3Cl)cc2o1 |  | inactive: -1.25%
14 | Cc1ccc(CN2C(=O)N/C(=C/c3ccc4c(c3)n(C)c(=O)n4C)C2=O)cc1 |  | inactive: 20.5%
15 | CC(=O)OCC(=O)c1c[nH]c2ccccc12 |  | inactive: 2.07%
16 | CCn1c(CSc2ncccn2)nnc1SCC(=O)N1CCc2ccccc21 | inconclusive: 39.8 µM [inhibitor, single point] | 
17 | COc1ccc(N(CC(=O)Nc2ccccc2SC)S(C)(=O)=O)cc1OC | inconclusive: 20 µM [inhibitor, partial curve, poor fit] | 
18 | C=CCN1CN(S(=O)(=O)c2cccs2)c2nc3ccccc3nc21 | inconclusive: 3.16 µM [inhibitor, single point] | 
19 | Cc1ccc2nsnc2c1S(=O)(=O)NCc1ccc2c(c1)OCO2 | inconclusive: 20 µM [inhibitor, single point] | 
20 | O=C1CC(c2ccco2)CC(O)=C1C=Nc1cc(Cl)ccc1Cl (centres undefined) | inconclusive: 0.794 µM [inhibitor, full curve] | 
21 | COC1=CC(=Cc2c(N)n3nc(CC(=O)N4CCOCC4)sc3nc2=O)C=C(OC)C1=O |  | inactive: 8.72%
22 | CCN(CC)c1ccc(C(=O)NNC(=O)CCl)cc1 |  | inactive: 3.59%
23 | Cc1cc(Cl)c2oc(C(=O)N(C)Cc3ccon3)c(C)c2c1 |  | inactive: -16%

Row | SMILES | Potency | activity change, negative = inhibition
24 | Cc1cc(C(=O)N/N=C/c2cc(Br)cc([N+](=O)[O-])c2O)c2ccccc2n1 |  | inactive: -3.04%
25 | NC(=O)CC(NC(=O)Cc1ccc(Br)cc1)c1ccc(NCCc2ccc(Cl)cc2)c([N+](=O)[O-])c1 (centres undefined) | inconclusive: 20 µM [inhibitor, partial curve, poor fit] | 
26 | COc1cc(C=O)c([N+](=O)[O-])cc1OC | inconclusive: 0.178 µM [inhibitor, single point] | 
27 | COc1cccc(OCCOc2cccc(/C=N/n3cnnc3)c2)c1 | inconclusive: 0.0398 µM [inhibitor, full curve, poor fit] | 
28 | Nc1c2ccccc2nc2ccccc12 (tested in a mixture with another compound) | inconclusive: 14.1 µM [inhibitor, partial curve] | 
29 | CC(C)(C)C(=O)Nc1ccc(C(=O)Nc2cccc(Oc3ccc(C(=O)O)c(C(=O)O)c3)c2)cc1 | inconclusive: 23.8 µM [inhibitor, partial curve] | 
30 | Cc1cc(=O)oc2c3c(ccc12)OC/C3=N/N |  | inactive: 10.2%
31 | CCOC(=O)c1c(NC(C)=O)sc2c(OCC(O)CNC(C)(C)C)c(Br)ccc12 (centres undefined) | inconclusive: 39.8 µM [inhibitor, single point] | 
32 | O=C(CCSc1ccc(Cl)cc1)NC12CC3CC(CC(C3)C1)C2 | inconclusive: 15.8 µM [inhibitor, partial curve] | 
33 | Cc1cccc(C(C(=O)NC2CCCC2)N(Cc2cccnc2)C(=O)c2csnn2)c1 (centres undefined) | inconclusive: 26.7 µM [inhibitor, single point] | 
34 | COc1cc2c(cc1O)[C@H](Cc1ccc(Oc3cc(C[C@@H]4NCCc5cc(OC)c(O)cc54)ccc3O)cc1)NCC2 | inconclusive: 3.16 µM [inhibitor, single point] | 
35 | COC(=O)c1c(C)cc(O)cc1O |  | inactive: 10.2%
36 | CCOC(=O)NNc1ccc2nonc2c1[N+](=O)[O-] | inconclusive: 20 µM [inhibitor, single point] | 
37 | CCN(CCCCN1C(=O)c2ccccc2C1=O)c1ccc2c(c1)C(=O)N(C)C2=O | inconclusive: 28.2 µM [inhibitor, single point] | 
38 | OCCN(Cc1ccccc1)C(=S)NC1CCCCC1 | inconclusive: 31.6 µM [inhibitor, single point] | 
39 | O=C1COCCN1 |  | inactive: -4.97%
40 | CN(C)c1ccc(CN2CCC(C(N)=O)CC2)cc1 | inconclusive: 50.1 µM [inhibitor, partial curve, poor fit] | 
41 | O=S(=O)(c1ccc2c(c1)N(Cc1ccc(Cl)cc1)C1CCCN21)N1CCOCC1 (centres undefined) |  | inactive: -4.22%
42 | CC(C)NC(=O)CC1C(=O)NCCN1CC(c1ccccc1)c1ccccc1 (centres undefined) | inconclusive: 31.6 µM [inhibitor, single point] | 
43 | CCN(CC)C1=CC2=CC(=C(C#N)C#N)CCC2CC1 (centres undefined) |  | inactive: 0.864%
44 | COc1cccc(CNC(=O)C(C)n2nc(C)n3c(cc4occc43)c2=O)c1 (centres undefined) | inconclusive: 26.7 µM [inhibitor, single point] | 
45 | Cc1c(C(=O)NCC2COc3ccccc3O2)oc2ccc(S(=O)(=O)N3CC(C)CC(C)C3)cc12 (centres undefined) | inconclusive: 0.891 µM [inhibitor, full curve, poor fit] | 
46 | COc1cc2ccccc2cc1C(=O)NC(=S)Nc1cccc(C(=O)O)c1 | inconclusive: 39.8 µM [inhibitor, single point] | 

Row | SMILES | Potency | activity change, negative = inhibition
47 | COc1cc(NC2CCCCC2O)c2nc(-c3ccc(Cl)cc3)ccc2c1 (centres undefined) |  | inactive: 12.3%
48 | CC1=C(O)C(=O)OC1c1c(Cl)cccc1Cl (centres undefined) | inconclusive: 7.08 µM [inhibitor, single point] | 
49 | CCC(=O)NC1OC(CO)C(O)C(O)C1O (centres undefined) | inconclusive: 0.0224 µM [inhibitor, full curve, poor fit] | 
50 | Cc1ccc(F)cc1NC(=O)N1c2ccccc2NC(=O)CC1C (centres undefined) | inconclusive: 6.31 µM [inhibitor, single point] | 
51 | COc1ccccc1CNC(=O)CN(c1ccc(C)cc1)S(=O)(=O)c1c(C)nn(C)c1C | inconclusive: 0.0032 µM [inhibitor, full curve, poor fit] | 
52 | O=C1N=C(N2CCOCC2)S/C1=C/c1ccc(-c2ccc(F)cc2)o1 |  | inactive: -5.6%
53 | O=c1[nH]c(CN2CCN(c3ccc(O)cc3)CC2)nc2scc(-c3ccc(Cl)cc3)c12 |  | inactive: -6.31%
54 | CCN(CC)S(=O)(=O)c1ccc2[nH]cc(C(=O)NCCC3=CCCCC3)c(=O)c2c1 | inconclusive: 35.5 µM [inhibitor, single point] | 
55 | CC(C)NC(=O)c1ccc(COCC(F)(F)C(F)F)cc1 | inconclusive: 3.16 µM [inhibitor, partial curve, poor fit] | 
56 | CC(C)(C)c1cc(NC(=O)c2ccc(OC3CCCC3)cc2)no1 | inconclusive: 50.1 µM [inhibitor, partial curve, poor fit] | 
57 | COc1ccc(S(=O)(=O)NCCCC(=O)Nc2ccc(Sc3ccc(N)cc3)cc2)cc1 |  | inactive: -3.24%
58 | CC1CC=CC2C1C(=O)N(Cc1ccccc1)C2c1ccc(C(F)(F)F)cc1 (centres undefined) |  | inactive: -2.52%
59 | COc1ccc(-c2nc(C#N)c(NCCCN3CCOCC3)o2)cc1 | inconclusive: 50.1 µM [inhibitor, partial curve, poor fit] | 
60 | O=C(Nc1cc(SCC(O)CO)cc([N+](=O)[O-])c1)c1ccc(-n2cnnn2)cc1 (centres undefined) |  | inactive: -0.454%
61 | Cn1cc(C=C2C(=O)Nc3cccnc32)c2ccccc21 | inconclusive: 28.2 µM [inhibitor, partial curve] | 
62 | CC1=NOC(=O)/C1=C/c1ccc(O)c(Br)c1 |  | inactive: 23.1%
63 | CO[C@H]1COC(=O)[C@@H](CCSC)NC(=O)C/C=C\[C@@H](C)[C@H](OC)COC(=O)[C@@H](OCc2ccccc2)/C=C\[C@@H]1C |  | inactive: 6.82% [at 12.4 µM]
64 | COc1ccc(C(CC(=O)Nc2ccc(Cl)cc2F)NC(=O)C(F)(F)F)cc1 (centres undefined) | inconclusive: 44.7 µM [inhibitor, single point] | 
65 | Cc1cccc(C)c1NC(=O)CSc1nnc(-c2ccco2)c(-c2ccco2)n1 | active: 15.8 µM | 
66 | COc1ccc(C(=O)NCCc2cc3c(OC)ccc(OC)c3[nH]c2=O)cc1OC | inconclusive: 11.2 µM [inhibitor, partial curve, poor fit] | 
67 | COc1ccc2[nH]c3nc(SCC(=O)Nc4cccc(NC(C)=O)c4)nnc3c2c1 |  | inactive: -23.5%
68 | COc1ccccc1NC(=O)Nc1ccnn1C1CCCCC1 |  | inactive: -7.36%
69 | O=C(Nc1ccccc1)Nc1ccc(C(F)(F)F)cn1 | inconclusive: 7.08 µM [inhibitor, single point] | 

Part of the list above in a different format:
Row,SMILES,Potency,"activity change, negative = inhibition"
1,CSC1=NCCN1C(=O)c1cccc(Br)c1,"inconclusive: 44.7 µM [inhibitor, single point]",
3,Cc1ccc(S(=O)(=O)Nc2ccc(C(OC(=O)c3ccccc3[N+](=O)[O-])(C(F)(F)F)C(F)(F)F)cc2)cc1,"inconclusive: 0.005 µM [inhibitor, full curve, poor fit]",
33,Cc1cccc(C(C(=O)NC2CCCC2)N(Cc2cccnc2)C(=O)c2csnn2)c1 (centres undefined),"inconclusive: 26.7 µM [inhibitor, single point]",
38,OCCN(Cc1ccccc1)C(=S)NC1CCCCC1,"inconclusive: 31.6 µM [inhibitor, single point]",
41,O=S(=O)(c1ccc2c(c1)N(Cc1ccc(Cl)cc1)C1CCCN21)N1CCOCC1 (centres undefined),,inactive: -4.22%
49,CCC(=O)NC1OC(CO)C(O)C(O)C1O (centres undefined),"inconclusive: 0.0224 µM [inhibitor, full curve, poor fit]",
